Data: article doi:10.1101/296194
These are yes or no findings as the source states them, for the method shown. In cells and extracts the contact can be indirect. Tags and fused reporters may be left off the sequences shown.

Chains of the proteins cited; added tags and fusions are not shown.
UniProt P00519: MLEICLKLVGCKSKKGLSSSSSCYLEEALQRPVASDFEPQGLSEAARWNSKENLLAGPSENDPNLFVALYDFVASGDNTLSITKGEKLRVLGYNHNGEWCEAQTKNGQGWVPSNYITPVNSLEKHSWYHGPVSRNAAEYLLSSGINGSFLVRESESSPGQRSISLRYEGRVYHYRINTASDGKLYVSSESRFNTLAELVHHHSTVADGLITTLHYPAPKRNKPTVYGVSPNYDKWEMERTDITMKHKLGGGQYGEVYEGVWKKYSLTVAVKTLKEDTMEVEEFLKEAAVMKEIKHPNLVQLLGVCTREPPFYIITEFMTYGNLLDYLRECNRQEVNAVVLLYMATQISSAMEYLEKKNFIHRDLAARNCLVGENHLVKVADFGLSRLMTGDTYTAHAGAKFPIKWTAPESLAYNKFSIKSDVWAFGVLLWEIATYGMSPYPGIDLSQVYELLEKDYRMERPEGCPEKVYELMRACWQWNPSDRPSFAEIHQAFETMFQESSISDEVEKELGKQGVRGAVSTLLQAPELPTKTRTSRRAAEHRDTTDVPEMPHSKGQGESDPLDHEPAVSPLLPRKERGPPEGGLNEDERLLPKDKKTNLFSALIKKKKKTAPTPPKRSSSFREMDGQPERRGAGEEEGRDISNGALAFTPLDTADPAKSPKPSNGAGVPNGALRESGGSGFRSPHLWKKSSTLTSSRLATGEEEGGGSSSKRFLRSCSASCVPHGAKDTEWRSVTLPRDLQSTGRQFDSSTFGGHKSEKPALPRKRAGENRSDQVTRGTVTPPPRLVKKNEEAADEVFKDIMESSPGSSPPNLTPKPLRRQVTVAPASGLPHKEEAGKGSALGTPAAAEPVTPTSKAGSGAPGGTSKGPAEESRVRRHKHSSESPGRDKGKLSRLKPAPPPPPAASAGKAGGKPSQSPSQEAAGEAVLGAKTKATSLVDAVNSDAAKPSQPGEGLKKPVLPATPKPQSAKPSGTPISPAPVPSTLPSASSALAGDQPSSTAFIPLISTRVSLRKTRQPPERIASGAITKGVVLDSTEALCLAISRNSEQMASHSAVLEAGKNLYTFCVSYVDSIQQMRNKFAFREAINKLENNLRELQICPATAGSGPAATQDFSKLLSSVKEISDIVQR

Target: T1, Flag-PTPN18-WT (UniProt Q99952)
T1 sequence: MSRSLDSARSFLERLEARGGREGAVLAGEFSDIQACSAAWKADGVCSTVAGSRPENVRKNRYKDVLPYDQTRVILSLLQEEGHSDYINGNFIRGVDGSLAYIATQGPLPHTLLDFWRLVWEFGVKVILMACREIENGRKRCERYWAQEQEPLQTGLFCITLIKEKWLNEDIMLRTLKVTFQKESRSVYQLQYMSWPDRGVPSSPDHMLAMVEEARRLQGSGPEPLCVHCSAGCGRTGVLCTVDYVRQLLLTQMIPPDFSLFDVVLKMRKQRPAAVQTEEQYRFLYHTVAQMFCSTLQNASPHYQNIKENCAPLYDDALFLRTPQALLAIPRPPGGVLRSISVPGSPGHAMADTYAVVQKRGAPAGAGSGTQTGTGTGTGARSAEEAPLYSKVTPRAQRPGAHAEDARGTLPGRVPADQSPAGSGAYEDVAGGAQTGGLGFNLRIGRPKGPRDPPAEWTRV
Test: co-IP

ABL1 (from UniProt P00519 1-1130)
binding: no binding
